# Experimental data taken from the supplement of paper PMC10849652.
# Protein sequences, listed by entry. Tags and fused reporters are not part of them. Lines headed by an entry give the natural chain unless they say otherwise; changes in a name come on top.
# UniProt A0JLT2: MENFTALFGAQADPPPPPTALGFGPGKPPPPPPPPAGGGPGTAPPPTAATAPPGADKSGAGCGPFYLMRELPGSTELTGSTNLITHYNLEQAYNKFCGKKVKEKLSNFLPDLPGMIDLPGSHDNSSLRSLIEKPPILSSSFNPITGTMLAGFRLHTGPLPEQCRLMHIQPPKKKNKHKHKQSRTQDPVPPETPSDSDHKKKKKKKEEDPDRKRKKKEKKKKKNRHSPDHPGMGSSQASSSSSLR
# UniProt O14770: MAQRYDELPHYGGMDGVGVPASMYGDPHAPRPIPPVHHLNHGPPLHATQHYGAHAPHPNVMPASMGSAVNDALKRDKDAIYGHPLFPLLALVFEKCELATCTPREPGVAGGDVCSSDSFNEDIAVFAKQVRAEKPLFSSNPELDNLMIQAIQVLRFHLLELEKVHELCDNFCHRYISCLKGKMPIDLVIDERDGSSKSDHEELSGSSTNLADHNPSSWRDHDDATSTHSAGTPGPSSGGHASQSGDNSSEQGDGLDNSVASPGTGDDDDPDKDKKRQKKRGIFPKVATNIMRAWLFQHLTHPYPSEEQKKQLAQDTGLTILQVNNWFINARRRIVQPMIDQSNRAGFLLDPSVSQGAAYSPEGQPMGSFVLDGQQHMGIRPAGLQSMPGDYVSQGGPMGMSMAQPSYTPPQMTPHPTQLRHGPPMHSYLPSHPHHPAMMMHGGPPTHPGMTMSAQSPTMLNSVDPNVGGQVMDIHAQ
# UniProt Q7L590: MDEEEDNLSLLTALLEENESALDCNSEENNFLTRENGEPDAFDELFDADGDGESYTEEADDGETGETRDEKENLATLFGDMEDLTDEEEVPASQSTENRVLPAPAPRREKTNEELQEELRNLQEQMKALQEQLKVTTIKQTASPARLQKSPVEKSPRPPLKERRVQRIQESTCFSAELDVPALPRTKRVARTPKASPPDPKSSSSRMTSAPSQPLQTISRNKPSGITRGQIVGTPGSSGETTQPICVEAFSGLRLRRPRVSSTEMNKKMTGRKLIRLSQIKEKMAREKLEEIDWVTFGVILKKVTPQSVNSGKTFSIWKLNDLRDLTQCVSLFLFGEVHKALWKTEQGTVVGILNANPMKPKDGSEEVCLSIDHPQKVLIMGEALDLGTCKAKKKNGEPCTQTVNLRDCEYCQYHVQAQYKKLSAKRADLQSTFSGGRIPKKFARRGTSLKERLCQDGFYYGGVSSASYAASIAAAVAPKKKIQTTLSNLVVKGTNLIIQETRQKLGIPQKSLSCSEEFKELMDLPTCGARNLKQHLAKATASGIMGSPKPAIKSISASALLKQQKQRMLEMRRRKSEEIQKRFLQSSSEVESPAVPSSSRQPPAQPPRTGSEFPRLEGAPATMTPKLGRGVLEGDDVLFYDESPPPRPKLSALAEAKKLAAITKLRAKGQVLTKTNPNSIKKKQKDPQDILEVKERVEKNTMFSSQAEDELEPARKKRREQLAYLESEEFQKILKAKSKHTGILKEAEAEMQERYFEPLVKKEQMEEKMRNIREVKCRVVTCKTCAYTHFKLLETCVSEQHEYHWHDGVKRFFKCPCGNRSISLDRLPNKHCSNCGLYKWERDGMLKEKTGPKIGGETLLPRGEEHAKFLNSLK
# UniProt Q5TF39: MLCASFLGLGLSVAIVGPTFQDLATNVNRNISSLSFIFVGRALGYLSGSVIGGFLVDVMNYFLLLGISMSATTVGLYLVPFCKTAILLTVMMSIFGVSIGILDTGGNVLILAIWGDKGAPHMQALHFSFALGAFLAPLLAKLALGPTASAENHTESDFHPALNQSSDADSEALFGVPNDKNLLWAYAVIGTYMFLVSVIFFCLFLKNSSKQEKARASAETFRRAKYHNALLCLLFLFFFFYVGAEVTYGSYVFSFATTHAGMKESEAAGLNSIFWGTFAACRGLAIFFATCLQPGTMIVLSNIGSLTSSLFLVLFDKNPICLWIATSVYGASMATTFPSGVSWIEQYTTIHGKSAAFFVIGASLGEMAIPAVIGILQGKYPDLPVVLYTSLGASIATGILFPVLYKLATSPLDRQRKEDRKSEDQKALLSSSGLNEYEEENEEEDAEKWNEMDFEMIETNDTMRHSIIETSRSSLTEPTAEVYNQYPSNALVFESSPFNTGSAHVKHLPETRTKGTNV
# UniProt Q8TCB7: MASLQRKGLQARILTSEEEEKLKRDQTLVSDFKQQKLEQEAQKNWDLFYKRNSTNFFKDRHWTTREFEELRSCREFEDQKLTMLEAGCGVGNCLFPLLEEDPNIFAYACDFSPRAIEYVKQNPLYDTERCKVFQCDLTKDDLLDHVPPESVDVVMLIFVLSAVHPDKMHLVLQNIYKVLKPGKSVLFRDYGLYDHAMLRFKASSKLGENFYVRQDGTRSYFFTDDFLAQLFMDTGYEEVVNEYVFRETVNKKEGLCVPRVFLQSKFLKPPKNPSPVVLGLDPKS
# UniProt Q15648, whole entry, looked up: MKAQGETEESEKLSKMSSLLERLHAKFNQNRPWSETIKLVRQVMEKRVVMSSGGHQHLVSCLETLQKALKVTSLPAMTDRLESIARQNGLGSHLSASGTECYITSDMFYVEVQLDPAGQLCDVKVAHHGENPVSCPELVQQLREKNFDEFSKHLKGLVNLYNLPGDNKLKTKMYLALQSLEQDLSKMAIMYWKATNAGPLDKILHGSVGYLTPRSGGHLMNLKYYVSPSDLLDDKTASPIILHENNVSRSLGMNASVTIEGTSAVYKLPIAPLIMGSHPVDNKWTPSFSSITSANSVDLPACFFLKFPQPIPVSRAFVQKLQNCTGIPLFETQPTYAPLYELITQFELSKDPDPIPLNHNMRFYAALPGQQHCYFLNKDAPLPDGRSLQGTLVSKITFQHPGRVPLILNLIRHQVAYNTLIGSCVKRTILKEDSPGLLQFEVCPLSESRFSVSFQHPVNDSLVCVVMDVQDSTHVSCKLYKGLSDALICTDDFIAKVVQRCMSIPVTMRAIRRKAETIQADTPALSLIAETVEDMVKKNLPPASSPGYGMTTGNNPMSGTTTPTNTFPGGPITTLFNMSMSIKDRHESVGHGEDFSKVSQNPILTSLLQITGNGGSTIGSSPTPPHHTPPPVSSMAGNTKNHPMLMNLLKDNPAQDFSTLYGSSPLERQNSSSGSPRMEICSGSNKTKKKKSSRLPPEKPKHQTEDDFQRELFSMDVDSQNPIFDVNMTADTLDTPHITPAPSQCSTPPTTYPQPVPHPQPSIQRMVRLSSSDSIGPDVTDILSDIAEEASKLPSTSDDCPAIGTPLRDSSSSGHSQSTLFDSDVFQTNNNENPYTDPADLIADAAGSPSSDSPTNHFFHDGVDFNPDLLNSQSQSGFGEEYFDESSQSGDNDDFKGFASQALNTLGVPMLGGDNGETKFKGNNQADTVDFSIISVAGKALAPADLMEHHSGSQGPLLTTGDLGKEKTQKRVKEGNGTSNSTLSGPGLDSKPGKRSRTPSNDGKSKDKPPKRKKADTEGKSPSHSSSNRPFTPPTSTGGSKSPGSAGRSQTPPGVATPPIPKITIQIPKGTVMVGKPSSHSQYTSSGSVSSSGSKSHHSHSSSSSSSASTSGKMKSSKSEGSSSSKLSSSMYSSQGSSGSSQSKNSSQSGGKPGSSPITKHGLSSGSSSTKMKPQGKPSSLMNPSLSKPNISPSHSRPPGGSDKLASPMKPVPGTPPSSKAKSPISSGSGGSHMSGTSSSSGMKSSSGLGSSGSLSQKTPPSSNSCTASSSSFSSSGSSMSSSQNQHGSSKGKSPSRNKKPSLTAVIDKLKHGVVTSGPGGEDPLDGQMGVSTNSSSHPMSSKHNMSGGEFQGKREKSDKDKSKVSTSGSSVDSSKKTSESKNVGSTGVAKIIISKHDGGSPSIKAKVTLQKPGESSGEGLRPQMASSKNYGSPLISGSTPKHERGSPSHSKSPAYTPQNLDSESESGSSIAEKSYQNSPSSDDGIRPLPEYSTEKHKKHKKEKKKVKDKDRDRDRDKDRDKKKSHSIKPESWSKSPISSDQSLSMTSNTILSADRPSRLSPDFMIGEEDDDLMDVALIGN
# UniProt Q8IWA4: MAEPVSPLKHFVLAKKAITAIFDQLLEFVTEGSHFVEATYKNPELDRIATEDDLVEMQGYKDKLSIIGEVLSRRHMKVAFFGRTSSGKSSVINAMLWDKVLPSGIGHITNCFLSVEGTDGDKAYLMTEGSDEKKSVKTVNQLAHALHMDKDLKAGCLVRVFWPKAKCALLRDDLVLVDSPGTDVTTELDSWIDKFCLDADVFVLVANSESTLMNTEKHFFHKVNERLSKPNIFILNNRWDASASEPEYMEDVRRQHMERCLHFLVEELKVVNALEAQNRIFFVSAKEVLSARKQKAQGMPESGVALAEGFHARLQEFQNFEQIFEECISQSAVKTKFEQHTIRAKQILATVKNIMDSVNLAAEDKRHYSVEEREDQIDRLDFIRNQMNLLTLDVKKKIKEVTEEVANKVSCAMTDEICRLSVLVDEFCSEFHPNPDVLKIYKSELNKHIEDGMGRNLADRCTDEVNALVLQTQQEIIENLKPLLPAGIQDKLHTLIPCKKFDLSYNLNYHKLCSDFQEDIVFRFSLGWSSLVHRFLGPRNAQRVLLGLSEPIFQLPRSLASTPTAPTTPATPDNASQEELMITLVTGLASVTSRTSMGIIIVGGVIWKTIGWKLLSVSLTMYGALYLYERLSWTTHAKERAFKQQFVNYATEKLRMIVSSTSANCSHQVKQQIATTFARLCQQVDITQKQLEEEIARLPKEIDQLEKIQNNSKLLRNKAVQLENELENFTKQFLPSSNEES
# UniProt O43934: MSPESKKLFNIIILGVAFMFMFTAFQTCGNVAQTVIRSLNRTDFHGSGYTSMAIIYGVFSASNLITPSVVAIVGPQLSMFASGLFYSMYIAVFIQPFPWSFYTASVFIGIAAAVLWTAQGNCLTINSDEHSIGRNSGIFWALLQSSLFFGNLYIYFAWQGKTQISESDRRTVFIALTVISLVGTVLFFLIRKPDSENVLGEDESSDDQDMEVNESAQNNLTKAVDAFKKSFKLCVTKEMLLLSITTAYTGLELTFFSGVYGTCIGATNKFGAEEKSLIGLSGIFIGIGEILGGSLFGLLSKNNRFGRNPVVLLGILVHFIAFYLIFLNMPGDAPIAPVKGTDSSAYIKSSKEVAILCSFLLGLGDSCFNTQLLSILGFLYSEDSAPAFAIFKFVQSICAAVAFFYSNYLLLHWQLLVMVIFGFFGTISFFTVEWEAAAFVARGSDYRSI
# UniProt Q9H7H0: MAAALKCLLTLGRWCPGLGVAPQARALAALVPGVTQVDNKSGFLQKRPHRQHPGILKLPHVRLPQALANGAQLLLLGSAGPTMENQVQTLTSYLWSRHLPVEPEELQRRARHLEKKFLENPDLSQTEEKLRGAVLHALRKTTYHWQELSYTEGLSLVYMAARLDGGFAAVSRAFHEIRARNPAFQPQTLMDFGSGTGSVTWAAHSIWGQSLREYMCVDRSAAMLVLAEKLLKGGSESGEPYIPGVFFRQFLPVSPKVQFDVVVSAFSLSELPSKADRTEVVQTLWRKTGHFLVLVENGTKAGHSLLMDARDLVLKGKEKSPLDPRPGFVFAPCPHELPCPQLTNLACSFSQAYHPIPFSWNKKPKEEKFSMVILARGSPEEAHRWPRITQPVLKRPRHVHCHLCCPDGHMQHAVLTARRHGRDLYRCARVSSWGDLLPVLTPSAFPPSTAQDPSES
# UniProt Q9NWA0: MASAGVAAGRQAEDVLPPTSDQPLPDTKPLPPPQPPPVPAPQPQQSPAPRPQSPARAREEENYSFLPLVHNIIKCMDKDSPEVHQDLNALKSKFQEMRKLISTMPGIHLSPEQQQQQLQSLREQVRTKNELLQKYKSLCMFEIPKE
# UniProt Q5SR56: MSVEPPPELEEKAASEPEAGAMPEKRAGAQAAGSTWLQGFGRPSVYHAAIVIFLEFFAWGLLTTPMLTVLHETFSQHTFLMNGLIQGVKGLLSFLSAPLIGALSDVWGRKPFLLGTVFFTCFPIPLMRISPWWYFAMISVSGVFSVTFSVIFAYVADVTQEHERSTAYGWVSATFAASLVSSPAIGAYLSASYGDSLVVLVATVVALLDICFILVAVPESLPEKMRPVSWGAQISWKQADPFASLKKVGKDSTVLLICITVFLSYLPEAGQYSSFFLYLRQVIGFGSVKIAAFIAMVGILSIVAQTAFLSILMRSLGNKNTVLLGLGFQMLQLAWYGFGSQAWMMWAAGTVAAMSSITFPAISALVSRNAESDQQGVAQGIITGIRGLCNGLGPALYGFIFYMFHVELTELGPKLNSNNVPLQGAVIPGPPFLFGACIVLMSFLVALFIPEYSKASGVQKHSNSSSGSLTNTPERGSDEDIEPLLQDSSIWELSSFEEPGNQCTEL
# The other results are listed elsewhere or left out. Residues, ends and D or L forms follow the SMILES beside them. *: point of attachment. Cbz = O=C(OCc1ccccc1)*
# Legend:
# Assay in all cases: log2 fold change, soluble protein after heating vs DMSO (PISA); higher = thermal stabilisation; K562 cells, 10 uM, 30 min; active = over 0.2 and 3.5 SD of the protein, either way, in both replicates (recomputed)
# [1] = compound: C1COCCN1CCN2C3=CC=CC=C3N=C2NC(=O)C4=CC(=CC=C4)[N+](=O)[O-] [IRAK-1-4 Inhibitor I]
# Method in brief: (§1)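 Quantification of soluble protein used TMTpro 16plex LC-MS/MS, with channel sums equalised. Samples were the supernatant after 21,000xg for 90 min of pooled aliquots from K562 cells (2×10^6 cells/mL) treated with 10 μM compound for 30 min, heated for 3 min over 48°C-58°C, and extracted in PBS with 0.5% NP-40 at 4°C. Values, from duplicates, describe thermal stability against control samples on a log2 fold-change scale.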
# [2] = compound: C=CC(=O)N1CCC[C@@H](n2nc(-c3ccc(Oc4ccccc4)cc3)c3c(N)ncnc32)C1 [ibrutinib]
# Method in brief: as §1
# [3] = compound: CC(C)(C)Cn1c(N)nc2ccc(-c3[nH]c(C(C)(C)C)nc3-c3ccc(F)cc3)nc21 [ralimetinib]
# Method in brief: as §1
# [4] = compound: CC(C)(O)CC(=O)NCCn1ccc2ncnc(Nc3ccc(Oc4cccc(C(F)(F)F)c4)c(Cl)c3)c21
# Method in brief: as §1
# [5] = compound: CC(C)C[C@@H](C=O)NC(=O)[C@H](CC(C)C)NC(=O)[C@H](CC(C)C)NC(=O)OCc1ccccc1
# Method in brief: as §1
# [6] = compound: CC(C)N(C[C@H]1O[C@@H](n2cnc3c(N)ncnc32)[C@H](O)[C@@H]1O)[C@H]1C[C@@H](CCc2nc3cc(C(C)(C)C)ccc3[nH]2)C1 [pinometostat]
# Method in brief: as §1
# [7] = compound: CC1=C(C(CC(=O)N1)C2=CC=C(C=C2)C(F)(F)F)C(=O)NC3=C(C=C4C(=C3)C=NN4)F
# Method in brief: as §1
# [8] = compound: CC1=C(C=C(C=C1)NC(=O)C2=CC(=CC=C2)C(C)(C)C#N)NC3=CC4=C(C=C3)N=CN(C4=O)C
# Method in brief: as §1
# [9] = compound: CC1=C(C=C(C=C1)NC(=O)C2=CC(=CC=C2)N(C)C)NC(=O)C3=CC=C(C=C3)O
# Method in brief: as §1
# [10] = compound: CC1=NC(=CC=C1)C2=C(N=C(N2)C(C)(C)C)C3=CC4=NC=CN=C4C=C3
# Method in brief: as §1
# [11] = compound: CCCCN(Cc1ccc(C(=O)NO)cc1)C(=O)Nc1ccccc1 [Nexturastat A]
# Method in brief: as §1
# [12] = compound: CCCS(=O)(=O)Nc1ccc(F)c(C(=O)c2c[nH]c3ncc(-c4ccc(Cl)cc4)cc23)c1F [vemurafenib]
# Method in brief: as §1
# [13] = compound: CCCc1cc(C)[nH]c(=O)c1CNC(=O)c1cc(-c2ccnc(N3CCN(C)CC3)c2)cc2c1cnn2C(C)C
# Method in brief: as §1
# [14] = compound: CCN(CCCOc1ccc2c(Nc3cc(CC(=O)Nc4cccc(F)c4)[nH]n3)ncnc2c1)CCOP(=O)(O)O [barasertib]
# Method in brief: as §1
# [15] = compound: CC(=O)c1cnc2ccc(-c3cc(Cl)c(O)c(Cl)c3)nc2c1N[C@H]1CC[C@H](CN(C)C)CC1
# Method in brief: as §1
# [16] = compound: CC(C)C1=C2N=C(C=C(N2N=C1)NCC3=CC=CC=C3)NCCCCCCN
# Method in brief: as §1
# [17] = compound: CC1=CC=C(C=C1)SC2=C3C=C(SC3=CN=C2)C(=O)N
# Method in brief: as §1
# [18] = compound: CCCS(=O)(=O)Nc1ccc(F)c(C(=O)c2c[nH]c3ncc(Cl)cc23)c1F
# Method in brief: as §1
# [19] = compound: CCN(CC)Cc1ccc2cc(COC(=O)Nc3ccc(C(=O)NO)cc3)ccc2c1 [givinostat]
# Method in brief: as §1
# [20] = compound: CC1=C(C2=C(C=C1)C(=O)C3=CC=CC=C3N2CCCN)C
# Method in brief: as §1
Target,log2 fold change [1],log2 fold change [2],log2 fold change [3],log2 fold change [4],log2 fold change [5],log2 fold change [6],log2 fold change [7],log2 fold change [8],log2 fold change [9],log2 fold change [10],log2 fold change [11],log2 fold change [12],log2 fold change [13],log2 fold change [14],log2 fold change [15],log2 fold change [16],log2 fold change [17],log2 fold change [18],log2 fold change [19],log2 fold change [20]
MED19 (UniProt A0JLT2),inactive: 0.164,inactive: 0.049,inactive: 0.135,inactive: 0.028,inactive: 0.095,inactive: -0.209,inactive: -0.062,inactive: -0.031,inactive: 0.068,inactive: -0.169,inactive: 0.217,inactive: -0.044,inactive: 0.04,inactive: 0.056,–,–,–,–,–,–
MEIS2 (UniProt O14770),inactive: 0.138,inactive: -0.04,inactive: 0.063,–,inactive: -0.008,inactive: 0.087,–,–,inactive: 0.017,inactive: 0.076,–,–,–,inactive: -0.051,inactive: -0.01,inactive: -0.149,inactive: -0.022,inactive: 0.104,inactive: 0.073,–
MCM10 (UniProt Q7L590),inactive: 0.096,inactive: 0.018,–,inactive: -0.115,–,inactive: -0.108,–,inactive: 0.209,–,inactive: 0.155,inactive: 0.028,inactive: -0.016,inactive: -0.037,inactive: -0.012,–,inactive: 0.015,inactive: 0.166,inactive: 0.217,inactive: -0.065,inactive: -0.037
MFSD4B (UniProt Q5TF39),inactive: 0.078,inactive: -0.004,inactive: -0.064,inactive: 0.008,inactive: -0.014,inactive: -0.016,inactive: 0.002,inactive: 0.051,inactive: -0.003,inactive: -0.015,inactive: -0.026,inactive: 0.129,inactive: -0.265,inactive: 0.035,inactive: 0.005,–,inactive: -0.094,inactive: 0.075,–,inactive: -0.019
METTL6 (UniProt Q8TCB7),inactive: 0.048,inactive: -0.131,–,inactive: -0.097,–,inactive: -0.08,–,inactive: 0.037,–,inactive: 0.2,inactive: 0.082,–,inactive: -0.027,inactive: 0.032,inactive: 0.004,inactive: -0.079,inactive: -0.141,inactive: -0.128,inactive: 0.119,inactive: 0.113
MED1 (UniProt Q15648),inactive: -0.049,inactive: 0.002,inactive: 0.032,inactive: -0.008,inactive: 0.033,inactive: 0.189,–,inactive: -0.043,inactive: 0.084,inactive: -0.06,inactive: 0.079,inactive: -0.028,inactive: -0.006,inactive: -0.023,active: -0.28,inactive: -0.106,inactive: -0.067,inactive: -0.034,inactive: 0.001,inactive: 0.027
MFN1 (UniProt Q8IWA4),inactive: 0.057,inactive: -0.009,inactive: -0.027,inactive: -0.043,inactive: 0.078,inactive: 0.018,–,inactive: -0.007,inactive: 0.035,inactive: -0.04,inactive: -0.032,inactive: -0.061,inactive: -0.19,inactive: 0.016,inactive: -0.047,active: -0.607,inactive: 0.039,inactive: -0.021,inactive: 0.053,inactive: 0.098
MFSD11 (UniProt O43934),inactive: 0.015,inactive: 0.006,–,inactive: -0.008,–,inactive: -0.009,–,inactive: -0.171,–,inactive: 0.013,inactive: -0.097,inactive: -0.012,inactive: -0.02,inactive: 0.013,inactive: -0.029,–,inactive: 0.038,inactive: 0.039,–,inactive: 0.095
METTL17 isoform 3 (UniProt Q9H7H0),–,–,inactive: 0.124,–,inactive: 0.025,–,–,inactive: 0.344,inactive: -0.016,–,–,–,inactive: 0.105,–,inactive: 0.007,–,inactive: -0.135,inactive: -0.08,–,–
MED9 (UniProt Q9NWA0),inactive: -0.027,–,inactive: -0.06,–,inactive: -0.028,inactive: 0.008,inactive: 0.033,–,inactive: -0.078,inactive: 0.017,–,–,inactive: -0.6,–,–,–,–,–,–,–
MFSD14B (UniProt Q5SR56),inactive: 0.012,–,–,inactive: -0.003,–,inactive: -0.316,inactive: 0.111,inactive: -0.089,–,inactive: -0.037,inactive: -0.069,inactive: 0.069,inactive: 0.028,–,inactive: -0.022,inactive: -0.006,inactive: -0.03,inactive: -0.066,inactive: -0.025,inactive: -0.051
